# Assay results as given in PubChem BioAssay AID328 (DTP/NCI, 2004).
# The list does not hold the whole screen: it is rich in T/C values a quarter to a half above the control, in often repeated tests (any T/C) and in doses without a T/C. Further doses and runs are listed elsewhere. T/C is the treated group as % of the vehicle group. Some doses have a count of surviving animals in place of a T/C: the source files T/C as zero there, which appears to mark a toxic dose or a test without result, not a measured value. Some doses without a T/C left all or most animals alive at the check, yet need not have been tolerated: the source hardly ever lists a survival T/C far under the control, and the zero likely stands for such cases as well. Counts of survivors are from the toxicity check (mostly the fifth day) where no day follows; animals may have died later. Schedules are NCI's codes, taken here to give the interval after Q, in days (D) or hours (H), and the number of doses after X. For survival time, the PubChem record calls one and a half times the control and up active, and a quarter to a half above the control has no call in these data; cut-offs in other NCI protocols can differ. Some entries hold several experiments; the results are listed from low to high. Counts like (3×) give the number of equal values in this list. Some T/C values are followed by the survivors on the day toxicity was checked, most often the fifth; without a count, all were alive then.
# Tested on: BDF1 mice, P388 leukemia ip, median survival T/C
# Assay: NCI In Vivo Anticancer Drug Screen. Data for tumor model P388 Leukemia (intraperitoneal) in B6D2F1 (BDF1) mice
# Conditions: T/C endpoint: median survival time, higher T/C = longer survival
# Summary of the method: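 Mice carrying the transplantable tumour receive compound or vehicle. Survival is followed in each arm, and the treated measure is divided by the vehicle measure.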
# [1] = dose: 200.0 mg/kg/injection, schedule: Q01DX009 (ip), vehicle: saline with Tween-80
# [2] = dose: 100.0 mg/kg/injection, schedule: Q01DX009 (ip), vehicle: saline with Tween-80
# [3] = dose: 50.0 mg/kg/injection, schedule: Q04DX003 (ip), vehicle: saline with Tween-80
# [4] = dose: 200.0 mg/kg/injection, schedule: Q04DX003 (ip), vehicle: saline with Tween-80
structure (smiles),measurement,setting,value
COc1cccc2c1C(=O)c1c(O)c3c(c(O)c1C2=O)C[C@@](O)(/C(C)=N\O)C[C@@H]3OC1CC(N)C(O)C(C)O1 (some centres not stated),T/C,"dose: 3.12 mg/kg/injection, schedule: Q01DX009 (ip), vehicle: water",134 % of control
same,T/C,"dose: 6.25 mg/kg/injection, schedule: Q01DX009 (ip), vehicle: water",127 % of control
same,T/C,"dose: 12.5 mg/kg/injection, schedule: Q01DX009 (ip), vehicle: water",148 % of control
same,T/C,"dose: 25.0 mg/kg/injection, schedule: Q01DX009 (ip), vehicle: water",145 % of control [5 of 6 alive]
same,survivor count,"dose: 50.0 mg/kg/injection, schedule: Q01DX009 (ip), vehicle: water",5 of 6
C[N+]1(C)N=C([O-])N(c2ccccc2C(F)(F)F)C1=O,survivor count,[1],4 of 6
C/C(=N\NC(N)=O)c1ccc(Cl)cc1,survivor count,"dose: 200.0 mg/kg/injection, schedule: Q01DX009 (ip), vehicle: Klucel (hydroxypropylcellulose) (HPC)",0 of 6
same,survivor count,"dose: 400.0 mg/kg/injection, schedule: Q01DX009 (ip), vehicle: Klucel (hydroxypropylcellulose) (HPC)",0 of 6
c1ccc(N=NC2=NN(c3ccccc3)CS2)cc1,T/C,[2],129 % of control
Nc1nc(=S)c2[nH]cnc2[nH]1,T/C,"dose: 1.2 mg/kg/injection, schedule: Q01DX009 (ip), vehicle: alkali diluted with saline","127, 138, 140 % of control"
same,T/C,"dose: 1.25 mg/kg/injection, schedule: Q01DX010 (ip), vehicle: other",131 % of control
same,T/C,"dose: 1.25 mg/kg/injection, schedule: Q01DX010 (ip), vehicle: saline",127 % of control
same,T/C,"dose: 1.8 mg/kg/injection, schedule: Q01DX009 (ip), vehicle: alkali diluted with saline",137 and 138 % of control (2×)
same,T/C,"dose: 2.5 mg/kg/injection, schedule: Q01DX010 (ip), vehicle: other",131 % of control
same,survivor count,"dose: 2.5 mg/kg/injection, schedule: Q01DX010 (ip), vehicle: saline",6 of 6
same,survivor count,"dose: 5.0 mg/kg/injection, schedule: Q01DX010 (ip), vehicle: saline",6 of 6
same,survivor count,"dose: 10.0 mg/kg/injection, schedule: Q01DX010 (ip), vehicle: other",6 of 6
same,survivor count,"dose: 10.0 mg/kg/injection, schedule: Q01DX010 (ip), vehicle: saline",6 of 6
O=C(O)c1ccc(N=NSc2ncnc3nc[nH]c23)cc1O,T/C,"dose: 2.0 mg/kg/injection, schedule: Q01DX009 (ip), vehicle: saline with Tween-80",130 and 146 % of control
same,T/C,"dose: 4.0 mg/kg/injection, schedule: Q01DX009 (ip), vehicle: saline with Tween-80",126 % of control
same,T/C,"dose: 6.0 mg/kg/injection, schedule: Q01DX009 (ip), vehicle: saline with Tween-80",138 % of control
same,T/C,"dose: 22.0 mg/kg/injection, schedule: Q04DX003 (ip), vehicle: saline with Tween-80",130 % of control
same,survivor count,"dose: 25.0 mg/kg/injection, schedule: Q01DX009 (ip), vehicle: saline with Tween-80",6 of 6
same,survivor count,"dose: 50.0 mg/kg/injection, schedule: Q01DX009 (ip), vehicle: saline with Tween-80",6 of 6
same,T/C,[3],131 % of control
same,survivor count,[3],6 of 6
same,survivor count,[2],6 of 6
same,T/C,"dose: 100.0 mg/kg/injection, schedule: Q04DX003 (ip), vehicle: saline with Tween-80",138 % of control
CCCNC(=O)Nc1cc(Cl)ccc1OC,T/C,[4],131 % of control
CCOC(=O)N1CCN(CCCCCOc2ccc(CC(C)(C)C)cc2Cl)CC1,T/C,[1],126 % of control [5 of 6 alive]
CCC(C)(OC(C)=O)C(=O)OC1C(=O)OC2CC3C(C)=CC(=O)C(O)C3(C)C3C(O)C(O)C4(C)OCC23C14 (configuration not stated),T/C,"dose: 0.02 mg/kg/injection, schedule: Q01DX009 (ip), vehicle: saline + alcohol",138 % of control
same,T/C,"dose: 0.05 mg/kg/injection, schedule: Q01DX009 (ip), vehicle: saline + alcohol",144 % of control
same,T/C,"dose: 0.19 mg/kg/injection, schedule: Q01DX009 (ip), vehicle: saline + alcohol",149 % of control
same,T/C,"dose: 0.25 mg/kg/injection, schedule: Q01DX009 (ip), vehicle: saline + alcohol",140 % of control
same,T/C,"dose: 0.5 mg/kg/injection, schedule: Q01DX009 (ip), vehicle: saline + alcohol",148 % of control
same,T/C,"dose: 1.0 mg/kg/injection, schedule: Q01DX009 (ip), vehicle: saline + alcohol",142 % of control
same,survivor count,"dose: 1.5 mg/kg/injection, schedule: Q01DX009 (ip), vehicle: saline + alcohol",3 of 6
same,survivor count,"dose: 4.0 mg/kg/injection, schedule: Q01DX009 (ip), vehicle: saline + alcohol",3 of 4
CN1CCCC1CCNc1nc(C(Cl)(Cl)Cl)nc2ccc(Cl)cc12 (configuration not stated),survivor count,[2],5 of 6
same,survivor count,[4],1 of 6
O=C1C=C(Nc2ccc(Br)cc2)C(Nc2ccc(Br)cc2)=CC1=O,survivor count,"dose: 37.5 mg/kg/injection, schedule: Q01DX009 (ip), vehicle: saline with Tween-80",3 of 7
same,survivor count,"dose: 75.0 mg/kg/injection, schedule: Q01DX009 (ip), vehicle: saline with Tween-80",6 of 7
same,survivor count,"dose: 150.0 mg/kg/injection, schedule: Q01DX009 (ip), vehicle: saline with Tween-80",7 of 7
C#CCOCC1CN(C)C(=O)O1 (configuration not stated),survivor count,"dose: 100.0 mg/kg/injection, schedule: Q04DX003 (ip), vehicle: saline",6 of 6
same,survivor count,"dose: 400.0 mg/kg/injection, schedule: Q04DX003 (ip), vehicle: saline",6 of 6
O=NN(CCF)C(=O)NCCF,T/C,"dose: 0.25 mg/kg/injection, schedule: Q01DX009 (ip), vehicle: saline",127 % of control
same,T/C,"dose: 0.5 mg/kg/injection, schedule: Q01DX009 (ip), vehicle: saline",127 and 130 % of control
same,survivor count,"dose: 2.0 mg/kg/injection, schedule: Q01DX009 (ip), vehicle: saline",6 of 6
same,T/C,"dose: 2.2 mg/kg/injection, schedule: Q04DX003 (ip), vehicle: saline",143 % of control
same,T/C,"dose: 5.0 mg/kg/injection, schedule: Q04DX003 (ip), vehicle: saline",130 % of control
Oc1c(Cl)cc(Cl)c2cccnc12,survivor count,"dose: 100.0 mg/kg/injection, schedule: Q01DX010 (ip), vehicle: carboxymethylcellulose (CMC)",2 of 6
CCCCNc1c(OC)ccc2c(C)c3[n+](cc12)CCc1cc(OC)c(OC)cc1-3,survivor count,"dose: 6.25 mg/kg/injection, schedule: Q04DX003 (ip), vehicle: water",6 of 6
same,survivor count,"dose: 12.5 mg/kg/injection, schedule: Q04DX003 (ip), vehicle: water",0 of 6
same,survivor count,"dose: 25.0 mg/kg/injection, schedule: Q04DX003 (ip), vehicle: water",0 of 6
O=NN(CCCl)C(=O)N[C@H]1CCCC[C@H]1Cl,T/C,"dose: 3.5 mg/kg/injection, schedule: Q01DX009 (ip), vehicle: Klucel (hydroxypropylcellulose) (HPC)",133 and 138 % of control
same,T/C,"dose: 8.0 mg/kg/injection, schedule: Q04DX003 (ip), vehicle: Klucel (hydroxypropylcellulose) (HPC)",125 % of control
same,survivor count,"dose: 67.0 mg/kg/injection, schedule: Q01DX009 (ip), vehicle: Klucel (hydroxypropylcellulose) (HPC)",6 of 6
same,T/C,"dose: 67.0 mg/kg/injection, schedule: Q04DX003 (ip), vehicle: Klucel (hydroxypropylcellulose) (HPC)",130 % of control
same,survivor count,"dose: 100.0 mg/kg/injection, schedule: Q01DX009 (ip), vehicle: Klucel (hydroxypropylcellulose) (HPC)",6 of 6
same,T/C,"dose: 100.0 mg/kg/injection, schedule: Q04DX003 (ip), vehicle: Klucel (hydroxypropylcellulose) (HPC)",130 % of control
same,survivor count,"dose: 150.0 mg/kg/injection, schedule: Q01DX009 (ip), vehicle: Klucel (hydroxypropylcellulose) (HPC)",6 of 6
same,T/C,"dose: 150.0 mg/kg/injection, schedule: Q04DX003 (ip), vehicle: Klucel (hydroxypropylcellulose) (HPC)",135 % of control
CCOC(=O)/C(C#N)=C/c1c(-c2ccccc2)nn2ccccc12,survivor count,[1],4 of 6
CCC[CH2][Sn]([CH2]CCC)([O]C(=O)CCC(C)=O)[O]C(=O)CCC(C)=O,survivor count,"dose: 12.5 mg/kg/injection, schedule: Q01DX009 (ip), vehicle: Klucel (hydroxypropylcellulose) (HPC)",2 of 6
same,survivor count,"dose: 25.0 mg/kg/injection, schedule: Q01DX009 (ip), vehicle: Klucel (hydroxypropylcellulose) (HPC)",0 of 6
same,survivor count,"dose: 50.0 mg/kg/injection, schedule: Q01DX009 (ip), vehicle: Klucel (hydroxypropylcellulose) (HPC)",0 of 6
OCCNCCNc1ccnc2cc(Cl)ccc12,survivor count,"dose: 200.0 mg/kg/injection, schedule: Q01DX009 (ip), vehicle: saline",6 of 6
